According to paper PMC5643328:
Results are given in words; binding and its absence hold for the method and conditions named. In cells and extracts the contact can be indirect. Some entries that bind do so weakly or less than the wild type.

Amino acid sequences for entries named in this document (tags omitted).
UniProt P16591: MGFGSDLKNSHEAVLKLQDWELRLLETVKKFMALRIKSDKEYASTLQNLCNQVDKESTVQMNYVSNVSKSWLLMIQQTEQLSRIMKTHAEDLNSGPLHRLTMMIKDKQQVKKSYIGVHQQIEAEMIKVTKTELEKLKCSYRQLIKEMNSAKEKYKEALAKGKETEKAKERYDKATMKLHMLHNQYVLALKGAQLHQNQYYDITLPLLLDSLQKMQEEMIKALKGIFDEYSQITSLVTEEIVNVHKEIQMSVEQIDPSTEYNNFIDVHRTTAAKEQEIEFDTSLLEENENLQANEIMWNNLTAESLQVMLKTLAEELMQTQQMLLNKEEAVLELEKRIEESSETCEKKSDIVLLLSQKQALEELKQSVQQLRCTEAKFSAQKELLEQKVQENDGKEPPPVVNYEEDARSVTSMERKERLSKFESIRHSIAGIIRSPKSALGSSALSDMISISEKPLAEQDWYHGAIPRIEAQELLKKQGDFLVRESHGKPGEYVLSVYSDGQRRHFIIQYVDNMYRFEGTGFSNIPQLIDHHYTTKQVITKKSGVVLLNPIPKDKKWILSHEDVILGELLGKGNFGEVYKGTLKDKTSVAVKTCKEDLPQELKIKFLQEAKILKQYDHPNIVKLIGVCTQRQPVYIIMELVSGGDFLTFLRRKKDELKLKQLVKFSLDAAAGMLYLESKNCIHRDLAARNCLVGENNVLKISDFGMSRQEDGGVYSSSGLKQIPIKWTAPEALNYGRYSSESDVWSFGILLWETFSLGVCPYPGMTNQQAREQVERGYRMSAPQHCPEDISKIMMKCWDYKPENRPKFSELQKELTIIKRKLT
UniProt P09874: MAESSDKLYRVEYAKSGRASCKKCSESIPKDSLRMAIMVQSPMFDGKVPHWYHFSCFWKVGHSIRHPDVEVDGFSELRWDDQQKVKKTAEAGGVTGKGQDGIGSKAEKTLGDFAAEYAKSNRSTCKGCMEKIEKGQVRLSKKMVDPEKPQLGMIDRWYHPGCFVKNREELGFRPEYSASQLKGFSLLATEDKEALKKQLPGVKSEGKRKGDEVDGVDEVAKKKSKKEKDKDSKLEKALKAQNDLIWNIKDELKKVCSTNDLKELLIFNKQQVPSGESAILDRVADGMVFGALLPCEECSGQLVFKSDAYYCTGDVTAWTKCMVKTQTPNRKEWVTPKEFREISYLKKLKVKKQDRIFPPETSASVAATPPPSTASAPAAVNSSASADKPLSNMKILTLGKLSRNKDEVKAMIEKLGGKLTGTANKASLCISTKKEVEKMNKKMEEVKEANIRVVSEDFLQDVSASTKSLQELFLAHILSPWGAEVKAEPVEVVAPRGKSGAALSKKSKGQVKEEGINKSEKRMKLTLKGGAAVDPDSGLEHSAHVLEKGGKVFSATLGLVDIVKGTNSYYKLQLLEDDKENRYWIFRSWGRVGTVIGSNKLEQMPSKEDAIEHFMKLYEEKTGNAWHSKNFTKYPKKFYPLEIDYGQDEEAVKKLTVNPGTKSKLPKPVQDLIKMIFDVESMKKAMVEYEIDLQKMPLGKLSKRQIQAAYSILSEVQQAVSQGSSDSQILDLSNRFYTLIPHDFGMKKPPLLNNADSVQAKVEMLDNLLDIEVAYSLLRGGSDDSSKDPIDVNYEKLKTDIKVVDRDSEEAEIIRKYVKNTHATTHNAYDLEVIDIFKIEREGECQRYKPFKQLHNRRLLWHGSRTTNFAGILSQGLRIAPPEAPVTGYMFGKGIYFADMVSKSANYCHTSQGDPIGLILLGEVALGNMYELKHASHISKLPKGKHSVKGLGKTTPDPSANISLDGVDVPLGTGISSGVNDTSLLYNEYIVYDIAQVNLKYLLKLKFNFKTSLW

Assays:
[1] = biological target: Fer kinase (human (endogenous in SW620)) (UniProt P16591); assay: condition: only cells treated with 2 µM E260 for 12 h; co-IP; as a2, but nuclear lysates of SW620 cells treated with 2 µM E260 (Fer/FerT inhibitor) for 12 h
[2] = biological target: Fer kinase (human (endogenous in SW620)) (UniProt P16591); assay: co-IP; nuclear protein lysates (5 mg) of SW620 cells treated with vehicle or increasing concentrations of E260 for 12 h; IP of Fer with antibodies against its N-terminal tail overnight at 4 °C, protein A Sepharose; washes in Tris pH 7.5, 0.1% Triton X-100, 150 mM then 75 mM NaCl; western blot; IgG-linked beads as control

- binding [1]: no binding
- binding [2]: binds
Substance: poly (ADP-ribose) polymerase-1 (from UniProt P09874 1-1014) (enzyme)
